Percent effect of library compounds

By UniProt entry, the sequences of proteins in these tests, tags left out. Residues count along the entry.
UniProt A4I591, 1-473: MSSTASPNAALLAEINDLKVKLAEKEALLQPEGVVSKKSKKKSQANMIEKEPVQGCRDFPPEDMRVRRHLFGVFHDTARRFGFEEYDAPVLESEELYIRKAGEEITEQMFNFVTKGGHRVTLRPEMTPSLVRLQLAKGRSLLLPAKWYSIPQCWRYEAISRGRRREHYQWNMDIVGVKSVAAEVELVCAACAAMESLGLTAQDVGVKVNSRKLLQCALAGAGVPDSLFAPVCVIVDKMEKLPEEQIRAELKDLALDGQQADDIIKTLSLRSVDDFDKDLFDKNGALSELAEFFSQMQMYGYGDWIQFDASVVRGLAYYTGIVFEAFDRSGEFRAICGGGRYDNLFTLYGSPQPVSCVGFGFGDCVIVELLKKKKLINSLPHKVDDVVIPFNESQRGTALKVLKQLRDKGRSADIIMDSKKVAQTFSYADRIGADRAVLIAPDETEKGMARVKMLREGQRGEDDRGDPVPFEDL

A: 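Assay of Toxoplasma gondii numbers, read through their beta-galactosidase reporter with a colour substrate. Compounds at 10 µM. Higher reads as fewer parasites (inferred from which compounds were picked for retests). Of about 67,000 compounds tested this way, about 260 (0.38%) reached 50% or more in at least one test.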
B: 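Enzyme assay of histidyl-tRNA synthetase; the read-out is not stated. Target: Histidine-tRNA ligase, Leishmania infantum (UniProt A4I591). Concentration: 30 µM. Higher reads as stronger inhibition (inferred: compounds with an IC50 in retests scored well above the rest). The assay is labelled LdHisRS but filed under L. infantum. Of about 69,000 compounds tested this way, about 410 (0.6%) reached 50% or more in at least one test.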

Results are given as percent effect.
How 0% and 100% were set is not recorded. Most values in the screen are low, and negative values occur.
Compounds were drawn at random from those tested, without regard to their results.

- O=C(N1CCOCC1)N1CC[C@H]2[C@@H]1CCC(=O)N2c1ccccc1 : B: 10.53%
- CCS(=O)(=O)N1CCc2ccc(NC(=O)Nc3cccc(F)c3)cc21 : A: 21.29%; B: -8.989%
- c1cnc2c(c1)cc([C@H]1CCCO1)n2CCN1CCCC1 : B: 15.62%
- O=C(O)C(F)(F)F.[H][C@@]12CCCO[C@]1([H])[C@@H](Oc1ccccn1)CN2C(=O)N(C)C : A: -4.656%
- O=C(O)C(F)(F)F.O=C(O)C(F)(F)F.[H][C@@]12C[C@@H](C(=O)NC)N(C(C)C)[C@]1([H])CN(c1ncccn1)C2 : A: -2.016%
- Cc1nc(CN2CC[C@@H](OCC3CC3)[C@@H]2Cc2cccnc2)cs1.O=C(O)C(F)(F)F.O=C(O)C(F)(F)F : A: 20.57%
- CCN(CC)C(=O)Cn1cc(C(=O)NCCCc2scnc2C)nn1 : A: 1.243%; B: -10.67%
- Cc1nnc(NC(=O)c2cc(S(=O)(=O)N3CCSCC3)c[nH]2)s1 : A: 5.581%; B: 18.75%
- Oc1ccc(Cl)cc1CNCc1ccccc1Cl : A: -27.96%; B: 8.602%
- Cc1cccc(NC(=O)[C@@H]2CCCN2Cc2nc(C)c(C)o2)n1 : A: -2.791%; B: 2.679%
- CCC(CC)NCC(C)Oc1cccnc1 (stereo unspecified) : A: -1.269%; B: 1.042%
- CCc1c(C)sc2nc3n(CCN(C)C)nc(SC)n3c(=O)c12 : A: -11.25%; B: 20%
- Cc1noc([C@H]2C[C@@H]3CCN(C(=O)C4CCOCC4)C[C@H]3O2)n1 : B: 3.008%
- Cc1ccoc1C(=O)N1CC[C@H]2[C@H](C[C@@H](CN3CCCC3)N2C)C1 : B: 5.769%
- CCS(=O)(=O)Nc1ccc2oc(C)c(C(=O)OC)c2c1 : A: 1.371%; B: 10.75%
- Cn1cc(N2CCC3(CCN(C(=O)[C@H]4CCCO4)C3)C2=O)cn1 (stereo partly specified) : A: 7.175%; B: 16.13%
- Cc1ccsc1CNC(=O)NC1CCCc2c1cnn2CCO (stereo unspecified) : A: -3.524%; B: 20.39%
- Cc1cccc(-c2noc(CN3CCOCC3C)n2)c1 (stereo unspecified) : A: -2.627%; B: 8.929%
- CN(C)[C@@H]1CO[C@H](CNC(=O)c2cccs2)[C@H]1O : A: 6.615%; B: 25%
- COc1ccc(CCCN2C(=O)O[C@@H]3CN(C4CCOCC4)C[C@@H]32)cc1 : B: 1.613%
- O=C1CC2(CCN(CC3CCOC3)CC2)c2ccccc2N1CC1CC1 (stereo unspecified) : B: 23.08%
- CCN1CCc2cc(-c3cncn3CCNC3CCS(=O)(=O)C3)ccc21 (stereo unspecified) : B: 29.58%
- O=C1NCCN2CCN(C(=O)Nc3ccc(-c4ccccc4)cc3)CC12 (stereo unspecified) : A: -6.45%; B: 21.33%
- NC(=O)c1cnc(NC2CCN(c3ccccc3)CC2)c(Cl)c1 : A: 3.245%; B: 17.46%
- COCCN1CCC2(CC1)CC(COC)N(c1ncccn1)C2.O=C(O)C(F)(F)F.O=C(O)C(F)(F)F (stereo unspecified) : A: 10.8%
- O=C(NCc1ccncc1)N(Cc1ccc(F)cc1F)C1CC1 : A: -0.6039%; B: 16.13%
- Cc1occc1C(=O)N1CC[C@@H]2[C@@H](CO[C@H]2CNS(C)(=O)=O)C1 : B: 25.71%
- CS(=O)(=O)N[C@H]1CN(C(=O)CCc2ccc(=O)[nH]n2)C[C@@H]1C1CC1 : A: 3.106%; B: 12.9%
- Cc1ccccc1CC(=O)N1C[C@@H](O)[C@H](N2CCOCC2)C1 : A: 2.972%; B: 7.092%
- Cc1ncsc1CNC(=O)CCN1CCN(c2ccccn2)CC1 : A: 2.065%; B: 7.937%
- Cc1ccc(N2CCc3ncc(CNc4ccccn4)n3CC2)nn1 : A: 2.451%; B: 13.89%
- O=C(O)C(F)(F)F.O=C(O)C(F)(F)F.O=C1N(c2ccsc2)CCC12CCCN(Cc1cccnc1)C2 (stereo unspecified) : A: 5.803%
- CN(C)C(=O)CNC(=O)c1ccc2ccc(N(C)CC3CC3)n2c1 : A: -12.1%; B: 28.44%
- CN(C)CC1CN(c2ncnc3ccsc23)CCO1 (stereo unspecified) : A: 21.91%; B: 17.65%
- OC(CNCCc1nnc2ccccn12)c1ccc(F)c(F)c1 (stereo unspecified) : A: 16.12%; B: 15%
- CCS(=O)(=O)N1C[C@@H](Oc2ccccn2)[C@H]2OCCC[C@H]21 : B: 16.81%
- CCOc1cccc(CNC(=O)C(C)(C)C#N)c1OC(F)F : A: 0.05804%; B: 15.79%
- Cc1cnn(C2CCCN(C(=O)CCCn3ccnc3C)C2)c1 (stereo unspecified) : A: -14.5%; B: 12.5%
- Nc1nc(CN2CCCC(Cn3cncn3)C2)nc2ccccc12 (stereo unspecified) : A: 8.939%; B: 3.077%
- Cc1nnc(CN2C[C@H](NC(=O)CC3CCCC3)[C@@H](C3CC3)C2)s1 : A: -3.471%; B: 4.255%
- CC(C)C1CN(Cc2nccn2C(C)C)CCC(=O)N1CC1CC1 (stereo unspecified) : A: 11.89%; B: 14.29%
- O=C([C@H]1CC[C@@H]2[C@@H](CCN2C2CCCCC2)O1)N1CCOCC1 : B: -1.923%
- CC(C)N(C)Cc1nnc2n1CCN(Cc1ccncc1)CC2 : B: 13.21%
- Fc1ccc(N2CCOC3(COCCN(c4ncccn4)C3)C2)cc1.O=C(O)C(F)(F)F (stereo unspecified) : A: -11.03%
- COc1c(CNC2CCN(CC(=O)NC3CC3)CC2)c(C)nn1C : A: 3.223%; B: 13.89%
- CS(=O)(=O)c1nccn1CCOc1ccc(F)cc1Cl : A: 14.43%; B: 0%
- O=C(CNc1ccc(OC2CCOC2)cc1)NCc1ccc(F)cc1 (stereo unspecified) : A: -6.182%; B: 20.48%

Once more, the final 3:

* COc1c(CNC2CCN(CC(=O)NC3CC3)CC2)c(C)nn1C : A: 3.223%; B: 13.89%
* CS(=O)(=O)c1nccn1CCOc1ccc(F)cc1Cl : A: 14.43%; B: 0%
* O=C(CNc1ccc(OC2CCOC2)cc1)NCc1ccc(F)cc1 (stereo unspecified) : A: -6.182%; B: 20.48%

The values are deposited in ChEMBL (CHEMBL3988442, “University of Dundee, Small-Polar-MMV Screening Library” (2021)).